Measured values published in PubChem BioAssay AID504834 (National Center for Advancing Translational Sciences (NCATS), 2011).
In all, about 320,000 compounds went through this assay and about 22,000 (6.9%) were called active. Inconclusive means that the source gave no clear call. Such entries were picked first, then a sample of the others. Calls come from the whole dose curve; as a rule, active = well fitted inhibition curve with a large enough effect; inconclusive = small, poorly fitted or top-dose-only effect, or another doubt; inactive = no such curve, though single readings can be large or run the other way. A potency beside an inconclusive call is a rough fit, not a confirmed value.

Assay: Primary qHTS for delayed death inhibitors of the malarial parasite plastid, 96 hour incubation
Conditions: P. falciparum luciferase reporter growth; series mostly up to 28.7 µM
Text: The goal of this screen is to discover new antimalarial compounds that act by inhibiting the development of the apicoplast in the malarial parasite Plasmodium falciparum. The biochemical processes that make this organelle essential for erythrocytic stage parasites are not well understood. However, antibiotics such as azithromycin and tetracycline, which target the apicoplast translational machinery, have a potent antimalarial effect.
We have developed a cell-based assay that measures parasite growth based on the expression of an integrated copy of a firefly luciferase reporter. To detect small molecules that cause this "delayed death" phenotype, erythrocytes infected with the luciferase-expressing parasites were incubated with compounds for either one or two generations, corresponding to 48 and 96 hours, respectively. Compounds that inhibit parasite growth in the second generation, but not the first, should be enriched in antimalarials that target the apicoplast. Growth inhibition is detected by a decrease in luciferase activity.
Assay Provider: David Fidock and Eric Ekland, Columbia University
Keywords: NIH Roadmap, MLPCN, MLI, MLSMR, qHTS, NCGC, qHTS, malaria, luciferase, viability
Four microliters of infected erythrocytes (2% hematocrit, 0.05% parasitemia final concentration) in culture medium were dispensed and the plates incubated for 96 hours at 37 C in 5% CO2. Two microliters of luciferase detection reagent was added and luminescence was detected by a ViewLux (PerkinElmer) reader.
Potency is the fitted concentration of half-maximal effect.

SMILES | Potency
CCN(CC)c1ccc(NC2=C(Cl)C(=O)c3ccccc3C2=O)cc1 | active: 2.94 µM
Cc1cc(C)c(-n2nnnc2SC(C)C)c(C)c1 | inconclusive: 18.5 µM [inhibitor, single point]
O=C(c1cc(Cl)ccc1F)N1CCCC(Nc2ccc3c(c2)OCCO3)C1 (stereo not given) | inconclusive: 18.5 µM [inhibitor, single point]
Cc1cc(C)nc(SCC(=O)NCc2ccco2)n1 | inconclusive: 8.28 µM [inhibitor, partial curve]
O=C(O)CC1=C(c2ccc(F)cc2)CCC1=O | active: 6.57 µM
CCOC(=O)c1ccc(NC(=S)N(CCCN2CCCCC2)Cc2ccco2)cc1 | inactive
CCOC(=O)C1CCN(C(=O)/C=C/c2ccc(OC)cc2)CC1 | inactive
O=C(Nc1ccc2sccc2c1)c1cccc(N2C(=O)CCC2=O)c1 | inactive
CC(=O)c1cccc(NC(=O)C2CCN(C(=O)c3ccccc3Cl)CC2)c1 | inactive
CC/C(=N\NC(=O)c1ccncc1)C12CC3CC(CC(C3)C1)C2 | inactive
O=C(Nc1ccccc1)C1=C[C@H](c2coc3ccccc3c2=O)C[C@H](OCc2ccc(CO)cc2)O1 | inconclusive: 13.1 µM [inhibitor, single point]
COc1ccc(CCN2CC(C(=O)NCCN3CCNC3=O)CCC2=O)cc1 (stereo not given) | inconclusive: 18.5 µM [inhibitor, single point]
Cc1cccc(OC(C)c2ccnc3nc(/N=C/N(C)C)nn23)c1 (stereo not given) | inconclusive: 4.15 µM [inhibitor, partial curve]
O=C(NCc1ccccc1)c1c[nH]c2cc3c(cc2c1=O)OCCO3 | inactive
O=C(NCCN1CCOCC1)c1ccccc1N1C(=O)[C@@H]2Cc3c([nH]c4ccccc34)C(c3ccccc3)N2C1=O (stereo not given in full) | inconclusive: 18.5 µM [inhibitor, partial curve, poor fit]
Cc1cccc(NC(=O)CSCC(=O)Nc2cc(Cl)ccc2N2CCN(C)CC2)c1 | inconclusive: 18.5 µM [inhibitor, single point]
CCOc1c2ccc(C(=O)NC3CCCc4ccccc43)cc2nn1CC (stereo not given) | inconclusive: 11.7 µM [inhibitor, single point]
COC(=O)c1ccccc1NC(=O)CSc1ccccn1 | active: 2.94 µM
Cc1ccc(-c2cc(-c3ccccc3)cc(-c3ccccc3)[n+]2-c2ccccc2C(=O)O)cc1 | active: 2.94 µM
COc1ccc(C2/C=C\CN(C(=O)Nc3ccc(C(F)(F)F)cc3)CC(=O)N2Cc2ccc(F)cc2)cc1 (stereo not given) | inconclusive: 18.5 µM [inhibitor, single point]
Cc1cnc(C(=O)N2CCCC(C(=O)c3ccc(C(F)(F)F)cc3)C2)cn1 (stereo not given) | inconclusive: 9.28 µM [inhibitor, partial curve]
O=C1OCc2ccc(NC(=O)c3ccccc3C(=O)O)cc21 | inactive
Cc1ccc2c(c1)nc(NCCO)n2C | inconclusive: 14.7 µM [inhibitor, partial curve, poor fit]
COc1c(Br)cc(C(N)=O)cc1OCc1ccccc1 | inactive
Cc1cc(=O)n(-c2ccc3ccccc3n2)[nH]1 | inactive

Looked up by structure from the entries so far:
SMILES | Potency
CCOC(=O)C1CCN(C(=O)/C=C/c2ccc(OC)cc2)CC1 | inactive
Cc1cnc(C(=O)N2CCCC(C(=O)c3ccc(C(F)(F)F)cc3)C2)cn1 (stereo not given) | inconclusive: 9.28 µM [inhibitor, partial curve]

The list goes on.

SMILES | Potency
CC(=O)Nc1ccc(S(=O)(=O)N2CCC(N3CCCCC3)CC2)cc1 | inconclusive: 7.38 µM [inhibitor, partial curve]
CCOc1ccc(S(=O)(=O)Nc2cccc(C(=O)NCC(c3ccccc3)N(C)C)c2)cc1 (stereo not given) | inconclusive: 14.7 µM [inhibitor, single point]
Cc1c(Cc2ccccc2)c(=O)oc2cc(OCC(=O)N[C@@H](Cc3ccccc3)C(=O)O)ccc12 | inconclusive: 18.5 µM [inhibitor, single point]
O=C(CC1NCCNC1=O)NC1Cc2ccccc2C1 (stereo not given) | inactive
CN1C(=O)N(C)C(=O)C2(Cc3c(ccc4ccccc34)N(C)C2)C1=O | inactive
COc1ccc(NC(=O)COc2cccc3c2OC(C)(C)C3)cc1OC | inconclusive: 2.62 µM [inhibitor, full curve]
COc1cccc(/C=C2\Oc3cc(OC(=O)N4CCOCC4)ccc3C2=O)c1 | inactive
Cc1ccnc2c1ccc1cccnc12 | active: 0.828 µM
COCCNC(=O)c1ccc(CN2CCC(Cc3ccccc3)CC2)cc1 | inconclusive: 18.5 µM [inhibitor, single point]
Cc1cc(NC(=O)c2ccc(Br)o2)ccc1NC(=O)c1ccco1 | inconclusive: 9.28 µM [inhibitor, single point]
Cc1ccc2c(c1)N(CC(=O)Nc1ncccc1C)C(=O)C(C(C)C)O2 (stereo not given) | inconclusive: 18.5 µM [inhibitor, single point]
COc1cccc(/C=C/C(=O)OCC(=O)Nc2cc(C(F)(F)F)ccc2Cl)c1 | inactive
COCCn1c(SCC(=O)N2CCCC2)nnc1-c1ccoc1C | inconclusive: 1.31 µM [inhibitor, partial curve, poor fit]
CCOc1ccccc1/C=N/NC(=O)CNC(=O)COc1ccccc1 | inconclusive: 3.7 µM [inhibitor, partial curve, poor fit]
CC(C)OC(=O)NCCOC(=O)Nc1ccc(Cl)cc1 | inconclusive: 8.28 µM [inhibitor, partial curve, poor fit]
O=C(CCN1CCOCC1)Nc1ccc(Cl)cc1 | inactive
CCCCN(CCCNC(=O)c1c(C)cc(=O)oc1C)c1ccccc1 | inactive
CN(C)S(=O)(=O)c1ccc(Cl)c(C(=O)Nc2ccc(S(=O)(=O)N3CCOCC3)cc2)c1 | inconclusive: 10.4 µM [inhibitor, single point]
CCOC(=O)c1ccc(-c2ccc(CO)o2)cc1 | inactive
O=C(NN1CCOCC1)c1ccc(Cl)cc1[N+](=O)[O-] | inconclusive: 18.5 µM [inhibitor, single point]
CC(C)N(C(=O)CSc1nn2c(=O)c(C(C)(C)C)nnc2s1)c1ccccc1 | inconclusive: 6.57 µM [inhibitor, partial curve, poor fit]
Cc1ccc(NC(NC(=O)c2cccnc2)C(Cl)(Cl)Cl)cc1 (stereo not given) | active: 13.1 µM
Cc1ccccc1C(=O)Nc1cc(C(F)(F)F)ccc1-n1cncn1 | inactive
CC1Cc2ccccc2N1S(=O)(=O)c1cccc(C(=O)NNC(=O)c2ccccc2F)c1 (stereo not given) | inconclusive: 11.7 µM [inhibitor, partial curve, poor fit]
Cc1ccc(CNc2ccccc2C(=O)O)s1 | inactive

Already shown: an excerpt of the list.
SMILES | Potency
Cc1cnc(C(=O)N2CCCC(C(=O)c3ccc(C(F)(F)F)cc3)C2)cn1 (stereo not given) | inconclusive: 9.28 µM [inhibitor, partial curve]
O=C1OCc2ccc(NC(=O)c3ccccc3C(=O)O)cc21 | inactive
Cc1ccc2c(c1)nc(NCCO)n2C | inconclusive: 14.7 µM [inhibitor, partial curve, poor fit]
COc1c(Br)cc(C(N)=O)cc1OCc1ccccc1 | inactive

Further results

SMILES | Potency
CN(C)c1ccc(C(=O)Nc2ccc(O)c3c(=O)cc(-c4ccccc4Cl)oc23)cc1 | inconclusive: 13.1 µM [inhibitor, single point]
Cc1nc(COC(=O)c2c(C)nn(-c3ccccc3)c2C)cs1 | inconclusive: 18.5 µM [inhibitor, single point]
CCOc1ccc2nc(NC(=O)CN3CCOCC3)sc2c1 | inactive
Cc1ccc(Nc2c(-c3ccc(N4CCOCC4)cc3)nc3ncccn23)c(C)c1 | inconclusive: 18.5 µM [inhibitor, single point]
COc1ccc(-n2sc3c(c2=S)-c2cc(OC)ccc2NC3(C)C)cc1 | inconclusive: 14.7 µM [inhibitor, partial curve, poor fit]
COc1ccc(CNC(=O)c2ccc3c(=O)n(-c4ccccc4)c(=O)[nH]c3c2)cc1 | inconclusive: 11.7 µM [inhibitor, single point]
COc1ccccc1C(=O)Nc1sc2c(c1C(=O)NCc1ccco1)CCCC2 | inactive
Nc1c2c(nc3ccn(Cc4ccccc4)c(=O)c13)CCC2 | active: 2.94 µM
CC(=O)N1CCN(C(=O)COC(=O)c2oc3ccccc3c2C)CC1 | inactive
Cc1cc(N2C(=O)C3CCC(c4ccccc4)CC3C2=O)no1 (stereo not given) | inactive
Nc1c(C(=O)O)sc2nc(-c3ccccc3)c3c(c12)CCCC3 | inconclusive: 18.5 µM [inhibitor, single point]
CCOC(=O)C1CCCc2c1[nH]c1c(C(N)=O)cccc21 (stereo not given) | inactive
O=C(Nc1ccccc1-c1nnn(CC(=O)N2CCN(c3ccccc3)CC2)n1)c1cccs1 | active: 9.28 µM
Cc1ccc(N(C(=O)C(F)(F)F)C(C(=O)NC2CCCCC2)c2cccs2)cc1 (stereo not given) | inconclusive: 16.5 µM [inhibitor, single point]
CCn1c(SCC(=O)Nc2nccs2)nnc1-c1ccccn1 | inconclusive: 18.5 µM [inhibitor, single point]
COc1cc(NC(=O)CSc2nnc(Cn3nnc4ccccc43)n2C)cc(OC)c1 | inconclusive: 18.5 µM [inhibitor, single point]
CC(C)C(c1nnnn1Cc1ccccc1)N1CCN(Cc2ccc3c(c2)OCO3)CC1 (stereo not given) | inactive
N#Cc1ccc2c(c1)nc1ccccn12 | inconclusive: 2.33 µM [inhibitor, full curve]
CCn1cc(CNC(=O)c2ccc(OC3CCN(Cc4ccccn4)CC3)cc2)cn1 | inconclusive: 0.294 µM [inhibitor, partial curve, poor fit]
C=CCn1c(=NC(=O)C2COc3ccccc3O2)sc2cccc(OC)c21 (stereo not given) | active: 1.17 µM
CCCOc1ccc(/C=N/NC(=O)C(=O)Nc2ccccn2)cc1 | inconclusive: 18.5 µM [inhibitor, single point]
N#Cc1nc(-c2ccc(OCc3ccc(Cl)cc3)cc2)oc1NCCCn1ccnc1 | inconclusive: 8.28 µM [inhibitor, single point]
COc1ccc(N=CC=C2OC(C)(C)C(C)(C)O2)cc1OC | inactive
Cc1onc(-c2c(F)cccc2Cl)c1C(=O)N(C)C1CCCCC1 | inactive
CCC(Oc1ccccc1)C(=O)OCC(=O)Nc1sccc1C(N)=O (stereo not given) | inactive
